Results as given in article PMC10517567.
No constants are given. Whether binding was seen depends on the method and setting. In cells and extracts the contact can be indirect. Some results given as binding are weak or reduced against the parent protein; the word gives no strength. For some assays here: Sequences can lack the tags named with a protein.

Amino acid sequences for entries named in this document (tags omitted).
UniProt P35222: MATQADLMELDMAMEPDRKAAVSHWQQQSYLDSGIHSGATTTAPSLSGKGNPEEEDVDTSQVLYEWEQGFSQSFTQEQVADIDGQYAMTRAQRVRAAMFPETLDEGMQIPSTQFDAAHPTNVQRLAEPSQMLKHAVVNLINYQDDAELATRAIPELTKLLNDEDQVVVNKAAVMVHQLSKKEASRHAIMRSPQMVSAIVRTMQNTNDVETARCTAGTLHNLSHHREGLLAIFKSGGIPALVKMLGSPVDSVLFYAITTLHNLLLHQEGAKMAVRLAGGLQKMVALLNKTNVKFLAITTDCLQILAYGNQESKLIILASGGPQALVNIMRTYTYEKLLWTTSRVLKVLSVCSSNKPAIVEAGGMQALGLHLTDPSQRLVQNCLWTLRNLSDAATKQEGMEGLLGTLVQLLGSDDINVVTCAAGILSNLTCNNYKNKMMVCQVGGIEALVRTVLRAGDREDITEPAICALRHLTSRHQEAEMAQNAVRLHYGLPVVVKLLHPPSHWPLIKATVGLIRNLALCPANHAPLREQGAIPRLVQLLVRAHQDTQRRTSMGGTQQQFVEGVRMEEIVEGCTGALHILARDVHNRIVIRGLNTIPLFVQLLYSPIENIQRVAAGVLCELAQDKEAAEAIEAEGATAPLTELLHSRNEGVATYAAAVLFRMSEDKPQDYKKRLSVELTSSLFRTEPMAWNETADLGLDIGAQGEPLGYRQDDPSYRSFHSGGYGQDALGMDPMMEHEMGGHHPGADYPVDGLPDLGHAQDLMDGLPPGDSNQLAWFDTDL

T1: Flag-UCHL3 (ubiquitin C-terminal hydrolase L3) (human (cDNA from 293 T cells)) (UniProt P15374)
T1 sequence: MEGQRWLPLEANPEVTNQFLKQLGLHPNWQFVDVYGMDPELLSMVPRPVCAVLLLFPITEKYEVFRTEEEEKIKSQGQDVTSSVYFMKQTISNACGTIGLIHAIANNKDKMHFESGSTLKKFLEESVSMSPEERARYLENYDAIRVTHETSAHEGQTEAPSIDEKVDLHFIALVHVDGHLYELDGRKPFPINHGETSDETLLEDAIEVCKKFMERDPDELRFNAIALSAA


Columns and labels:
[1] = molecular target: T1, Flag-UCHL3 (ubiquitin C-terminal hydrolase L3) (human (cDNA from 293 T cells)); assay: co-IP; Flag-UCHL3 and HA-CTNNB1 coexpressed in 293 T cells; immunoprecipitation with anti-Flag; IP lysis buffer 30 mM Tris-HCl pH 7.4, 150 mM NaCl, 1% NP-40; G-agarose beads precoated with antibody, 4 °C, 6 h; Western blot
[2] = molecular target: CTNNB1, endogenous in T24 cells (human (endogenous in T24)) (UniProt P35222); assay: co-IP; endogenous proteins in T24 cells; immunoprecipitation with anti-CTNNB1 followed by immunoblotting with anti-UCHL3

| binding [1] | binding [2] | Molecule |
| --- | --- | --- |
| binds | – | HA-CTNNB1 (catenin beta 1) (from UniProt P35222 1-781) |
| – | binds | UCHL3, endogenous in T24 cells (enzyme, UniProt P15374 1-230) MEGQRWLPLEANPEVTNQFLKQLGLHPNWQFVDVYGMDPELLSMVPRPVCAVLLLFPITEKYEVFRTEEEEKIKSQGQDVTSSVYFMKQTISNACGTIGLIHAIANNKDKMHFESGSTLKKFLEESVSMSPEERARYLENYDAIRVTHETSAHEGQTEAPSIDEKVDLHFIALVHVDGHLYELDGRKPFPINHGETSDETLLEDAIEVCKKFMERDPDELRFNAIALSAA |
